According to PubChem BioAssay AID248 (DTP/NCI, 2004):
The list shows only some results of the screen, not a fair sample: it is rich in T/C values a quarter to a half above the control, in often repeated tests (any T/C) and in doses without a T/C. Other doses and runs of a compound stand elsewhere. T/C gives the treated animals as a percentage of the vehicle group. Some entries give survivors of the animals treated and no T/C: the source holds a T/C of zero for them, seemingly a mark for toxic or unscored doses. Some survivor counts are full or nearly so, which does not show that the dose was tolerated: the source hardly ever lists a survival T/C far under the control, and the zero likely stands for such cases as well. Counts of survivors are from the toxicity check (mostly the fifth day) where no day follows; animals may have died later. Schedule codes are those of the source, read here as Q, the interval in days (D) or hours (H), X, the number of doses. Where survival is the endpoint, the PubChem record calls one and a half times the control and up active, and a quarter to a half above the control has no call in these data; cut-offs in other NCI protocols can differ. Some entries hold several experiments; their values stand side by side, smallest first. Some T/C values are followed by the survivors on the day toxicity was checked, most often the fifth; where none is given, no animal had died by that day.

System: L1210 leukemia ip in BDF1 mice, survival T/C
Experiment: NCI In Vivo Anticancer Drug Screen. Data for tumor model L1210 Leukemia (intraperitoneal) in B6D2F1 (BDF1) mice
Details: higher T/C = longer survival
[1] = T/C endpoint: mean survival time, dose: 64.0 mg/kg/injection, schedule: Q01DX009 (ip), vehicle: Klucel (hydroxypropylcellulose) (HPC)
[2] = T/C endpoint: mean survival time, dose: 128.0 mg/kg/injection, schedule: Q01DX009 (ip), vehicle: Klucel (hydroxypropylcellulose) (HPC)

With COc1cc([C@@H]2c3cc4c(cc3[C@@H](OC3OC5COC(C)OC5C(O)C3O)[C@H]3COC(=O)[C@H]23)OCO4)cc(OC)c1O (stereo partly specified) the T/C (T/C endpoint: mean survival time, dose: 2.0 mg/kg/injection, schedule: Q01DX009 (sc), vehicle: Klucel (hydroxypropylcellulose) (HPC)) was 126 % of control, the T/C (T/C endpoint: mean survival time, dose: 2.0 mg/kg/injection, schedule: Q01DX009 (sc), vehicle: clinical formulation) was 130 % of control [9 of 10 alive] and the T/C (T/C endpoint: mean survival time, dose: 4.0 mg/kg/injection, schedule: Q01DX009 (sc), vehicle: Klucel (hydroxypropylcellulose) (HPC)) was 137 % of control. For the same compound, the T/C (T/C endpoint: mean survival time, dose: 8.0 mg/kg/injection, schedule: Q01DX009 (sc), vehicle: Klucel (hydroxypropylcellulose) (HPC)) was 147 % of control, the T/C (T/C endpoint: mean survival time, dose: 16.0 mg/kg/injection, schedule: Q01DX001 (ip), vehicle: Klucel (hydroxypropylcellulose) (HPC), evaluated on day 30) was 191 % of control and the T/C (T/C endpoint: mean survival time, dose: 16.0 mg/kg/injection, schedule: Q01DX001 (ip), vehicle: Klucel (hydroxypropylcellulose) (HPC), evaluated on day 60) was 149, 166, 167 % of control. The T/C (T/C endpoint: mean survival time, dose: 16.0 mg/kg/injection, schedule: Q01DX009 (ip), vehicle: Klucel (hydroxypropylcellulose) (HPC), evaluated on day 30) was 111 % of control, the T/C (T/C endpoint: mean survival time, dose: 16.0 mg/kg/injection, schedule: Q01DX009 (ip), vehicle: Klucel (hydroxypropylcellulose) (HPC), evaluated on day 60) was 132 and 148 % of control and the survivor count (T/C endpoint: mean survival time, dose: 16.0 mg/kg/injection, schedule: Q01DX009 (ip), vehicle: Klucel (hydroxypropylcellulose) (HPC)) was 6 of 6. The T/C (T/C endpoint: mean survival time, dose: 16.0 mg/kg/injection, schedule: Q04DX003 (ip), vehicle: Klucel (hydroxypropylcellulose) (HPC), evaluated on day 30) was 208 % of control, the T/C (T/C endpoint: mean survival time, dose: 16.0 mg/kg/injection, schedule: Q04DX003 (ip), vehicle: Klucel (hydroxypropylcellulose) (HPC), evaluated on day 60) was 205, 286, 320 % of control and the T/C (T/C endpoint: mean survival time, dose: 32.0 mg/kg/injection, schedule: Q01DX001 (ip), vehicle: Klucel (hydroxypropylcellulose) (HPC), evaluated on day 30) was 223 % of control. The T/C (T/C endpoint: mean survival time, dose: 32.0 mg/kg/injection, schedule: Q01DX001 (ip), vehicle: Klucel (hydroxypropylcellulose) (HPC), evaluated on day 60) was 228, 267, 395 % of control, the T/C (T/C endpoint: mean survival time, dose: 32.0 mg/kg/injection, schedule: Q01DX001 (sc), vehicle: clinical formulation) was 127 % of control and the T/C (T/C endpoint: mean survival time, dose: 32.0 mg/kg/injection, schedule: Q01DX009 (ip), vehicle: Klucel (hydroxypropylcellulose) (HPC), evaluated on day 30) was 116 % of control. The T/C (T/C endpoint: mean survival time, dose: 32.0 mg/kg/injection, schedule: Q01DX009 (ip), vehicle: Klucel (hydroxypropylcellulose) (HPC), evaluated on day 60) was 91 and 104 % of control, the survivor count (T/C endpoint: mean survival time, dose: 32.0 mg/kg/injection, schedule: Q01DX009 (ip), vehicle: Klucel (hydroxypropylcellulose) (HPC)) was 5 of 6 and the survivor count (T/C endpoint: mean survival time, dose: 32.0 mg/kg/injection, schedule: Q01DX009 (oral), vehicle: clinical formulation) was 0 of 10. The T/C (T/C endpoint: mean survival time, dose: 32.0 mg/kg/injection, schedule: Q01DX009 (sc), vehicle: Klucel (hydroxypropylcellulose) (HPC)) was 130 % of control, the survivor count (T/C endpoint: mean survival time, dose: 32.0 mg/kg/injection, schedule: Q01DX009 (sc), vehicle: clinical formulation) was 10 of 10 and the T/C (T/C endpoint: mean survival time, dose: 32.0 mg/kg/injection, schedule: Q04DX003 (ip), vehicle: Klucel (hydroxypropylcellulose) (HPC), evaluated on day 30) was 335 % of control. For the same compound, the T/C (T/C endpoint: mean survival time, dose: 32.0 mg/kg/injection, schedule: Q04DX003 (ip), vehicle: Klucel (hydroxypropylcellulose) (HPC), evaluated on day 60) was 428 [9 of 10 alive], 484, 616 % of control, the T/C (T/C endpoint: mean survival time, dose: 60.0 mg/kg/injection, schedule: Q04DX003 (ip), vehicle: saline) was 147 % of control and the T/C (T/C endpoint: mean survival time, dose: 64.0 mg/kg/injection, schedule: Q01DX001 (ip), vehicle: Klucel (hydroxypropylcellulose) (HPC), evaluated on day 30) was 253 % of control. The T/C (T/C endpoint: mean survival time, dose: 64.0 mg/kg/injection, schedule: Q01DX001 (ip), vehicle: Klucel (hydroxypropylcellulose) (HPC), evaluated on day 60) was 405, 519, 524 % of control, the T/C (T/C endpoint: mean survival time, dose: 64.0 mg/kg/injection, schedule: Q01DX001 (sc), vehicle: Klucel (hydroxypropylcellulose) (HPC)) was 132 % of control and the T/C [1] was 136 % of control. For the same compound, the survivor count [1] was 6 of 6, the T/C (T/C endpoint: mean survival time, dose: 64.0 mg/kg/injection, schedule: Q01DX009 (oral), vehicle: Klucel (hydroxypropylcellulose) (HPC)) was 136 % of control and the survivor count (T/C endpoint: mean survival time, dose: 64.0 mg/kg/injection, schedule: Q01DX009 (oral), vehicle: clinical formulation) was 10 of 10. The T/C (T/C endpoint: mean survival time, dose: 64.0 mg/kg/injection, schedule: Q04DX003 (ip), vehicle: Klucel (hydroxypropylcellulose) (HPC), evaluated on day 30) was 120 % of control, the T/C (T/C endpoint: mean survival time, dose: 64.0 mg/kg/injection, schedule: Q04DX003 (ip), vehicle: Klucel (hydroxypropylcellulose) (HPC), evaluated on day 60) was 160, 260, 490 % of control and the T/C (T/C endpoint: mean survival time, dose: 128.0 mg/kg/injection, schedule: Q01DX001 (ip), vehicle: Klucel (hydroxypropylcellulose) (HPC), evaluated on day 30) was 287 % of control [4 of 6 alive]. The T/C (T/C endpoint: mean survival time, dose: 128.0 mg/kg/injection, schedule: Q01DX001 (ip), vehicle: Klucel (hydroxypropylcellulose) (HPC), evaluated on day 60) was 462 [9 of 10 alive], 600, 675 % of control, the T/C (T/C endpoint: mean survival time, dose: 128.0 mg/kg/injection, schedule: Q01DX001 (sc), vehicle: Klucel (hydroxypropylcellulose) (HPC)) was 142 % of control and the T/C (T/C endpoint: mean survival time, dose: 128.0 mg/kg/injection, schedule: Q01DX001 (sc), vehicle: clinical formulation) was 145 % of control. For the same compound, the T/C [2] was 129 % of control, the survivor count [2] was 4 of 6 and the T/C (T/C endpoint: mean survival time, dose: 128.0 mg/kg/injection, schedule: Q01DX009 (oral), vehicle: Klucel (hydroxypropylcellulose) (HPC)) was 143 % of control. For the same compound, the survivor count (T/C endpoint: mean survival time, dose: 128.0 mg/kg/injection, schedule: Q01DX009 (oral), vehicle: clinical formulation) was 9 of 10, the T/C (T/C endpoint: mean survival time, dose: 128.0 mg/kg/injection, schedule: Q04DX003 (ip), vehicle: Klucel (hydroxypropylcellulose) (HPC), evaluated on day 30) was 92 % of control and the T/C (T/C endpoint: mean survival time, dose: 128.0 mg/kg/injection, schedule: Q04DX003 (ip), vehicle: Klucel (hydroxypropylcellulose) (HPC), evaluated on day 60) was 94 [8 of 9 alive], 101, 119 % of control. The T/C (T/C endpoint: mean survival time, dose: 128.0 mg/kg/injection, schedule: Q04DX003 (oral), vehicle: Klucel (hydroxypropylcellulose) (HPC)) was 134 % of control, the survivor count (T/C endpoint: mean survival time, dose: 256.0 mg/kg/injection, schedule: Q01DX001 (ip), vehicle: Klucel (hydroxypropylcellulose) (HPC)) was 4 of 9 and the survivor count (T/C endpoint: mean survival time, dose: 256.0 mg/kg/injection, schedule: Q01DX009 (oral), vehicle: clinical formulation) was 10 of 10. For the same compound, the T/C (T/C endpoint: mean survival time, dose: 256.0 mg/kg/injection, schedule: Q04DX003 (oral), vehicle: Klucel (hydroxypropylcellulose) (HPC)) was 129 % of control, the survivor count (T/C endpoint: mean survival time, dose: 256.0 mg/kg/injection, schedule: Q08DX002 (ip), vehicle: Klucel (hydroxypropylcellulose) (HPC)) was 3 of 9 and the survivor count (T/C endpoint: mean survival time, dose: 512.0 mg/kg/injection, schedule: Q01DX009 (oral), vehicle: clinical formulation) was 8 of 10. The T/C (T/C endpoint: mean survival time, dose: 512.0 mg/kg/injection, schedule: Q04DX003 (oral), vehicle: Klucel (hydroxypropylcellulose) (HPC)) was 131 % of control, the survivor count (T/C endpoint: mean survival time, dose: 1024.0 mg/kg/injection, schedule: Q01DX001 (oral), vehicle: clinical formulation) was 1 of 10 and the survivor count (T/C endpoint: mean survival time, dose: 1024.0 mg/kg/injection, schedule: Q01DX009 (oral), vehicle: Klucel (hydroxypropylcellulose) (HPC)) was 8 of 10. For the same compound, the survivor count (T/C endpoint: mean survival time, dose: 1024.0 mg/kg/injection, schedule: Q01DX009 (oral), vehicle: clinical formulation) was 0 of 10, the T/C (T/C endpoint: mean survival time, dose: 1024.0 mg/kg/injection, schedule: Q04DX003 (oral), vehicle: Klucel (hydroxypropylcellulose) (HPC)) was 125 % of control and the T/C (T/C endpoint: median survival time, dose: 0.5 mg/kg/injection, schedule: Q01DX009 (ip), vehicle: saline) was 133 % of control. The T/C (T/C endpoint: median survival time, dose: 1.0 mg/kg/injection, schedule: Q01DX009 (ip), vehicle: saline) was 138 % of control and the T/C (T/C endpoint: median survival time, dose: 4.0 mg/kg/injection, schedule: Q01DX009 (sc), vehicle: Klucel (hydroxypropylcellulose) (HPC)) was 142 % of control.
